In PubChem BioAssay AID540276 (National Center for Advancing Translational Sciences (NCATS), 2011):
In all, about 300,000 compounds went through this assay and about 5,400 (1.8%) were called active. The shares of active, inactive and inconclusive entries below differ from those in the screen. The call rests on the fitted dose curve; tested in HEK293 cells. A potency beside an inconclusive call is a rough fit, not a confirmed value.

Assay: qHTS for inhibitors of binding or entry into cells for Marburg Virus
Details: Marburg virus pseudotyped entry inhibition, cell reporter; activity change, negative = inhibition: at 37.8 µM (top of the series) unless noted
On the % scale 0 is the no-effect control and ±100 the full control effect; potency means the concentration at half of the fitted maximal effect.

| SMILES | activity change, negative = inhibition | Potency |
| --- | --- | --- |
| O=C(c1cc(-c2ccncc2)nc2ccc(Cl)cc12)N1CCN(C(=O)C2CCCO2)CC1 (stereo not drawn) | inactive: -12.4% | – |
| COc1ccc(C(CNC(=O)Cc2ccc3ccccc3c2)N(C)C)cc1 (stereo not drawn) | – | inconclusive: 14.1 µM [inhibitor, single point] |
| Oc1ccccc1N1CCN(c2ncnc3scc(-c4ccc(F)cc4)c23)CC1 | – | inconclusive: 35.5 µM [inhibitor, single point] |
| CC(C)CNc1nc(SCC(=O)Nc2ccccc2)nc(N2CCOCC2)n1 | – | inconclusive: 1 µM [inhibitor, full curve, poor fit] |
| COc1ccc(C(=O)Nn2c(SCC(=O)NC3CCCCC3)nc3ccccc3c2=O)cc1 | – | inconclusive: 7.3 µM [inhibitor, partial curve, poor fit] |
| CCCCC(C)Sc1nc2c([nH]1)c(=S)n(C)c(=O)n2C (stereo not drawn) | – | inconclusive: 3.55 µM [inhibitor, single point] |
| CC(=O)c1ccc(-c2ccccc2)cc1 | inactive: 8.87% | – |
| CCOC(=O)N1CCN(C(=O)CN(Cc2ccc(Cl)cc2)S(=O)(=O)c2ccc(C)cc2)CC1 | inactive: -22.6% | – |
| COc1ccc(Cl)cc1NC(=O)CSC1=Nc2ccccc2C2=NC(CC(=O)NC3CCCCC3)C(=O)N12 (stereo not drawn) | – | inconclusive: 11.2 µM [inhibitor, single point] |
| COc1ccc(C(C)(C)C)cc1NC(=O)Nc1ccc2c(c1)OCO2 | – | inconclusive: 14.6 µM [inhibitor, partial curve, poor fit] |
| CCOc1ccc(-n2c(=O)c3sccc3n(CC(=O)NCC3CCCO3)c2=O)cc1 (stereo not drawn) | inactive: 15.5% [at 46.1 µM] | – |
| CCCNC(=O)N1C2=NC(C(=O)OC)=C(C(=O)OC)[C@@H]3Nc4ccccc4[C@]23C[C@H]1C(=O)OC | inactive: 3.18% [at 14.2 µM] | – |
| COc1ccc(NS(=O)(=O)c2cccc(NC(=O)c3ccc(S(=O)(=O)N4CCCCCC4)cc3)c2)cc1 | – | active: 3.55 µM |
| NC(=O)C1CCN(C(=O)/C(=C/c2ccco2)NC(=O)c2ccccc2)CC1 | – | inconclusive: 6.31 µM [activator, single point] |
| CS(=O)(=O)Nc1ccc(S(=O)(=O)Nc2nccs2)cc1 | – | inconclusive: 35.5 µM [activator, partial curve, poor fit] |
| O=C(CNS(=O)(=O)c1ccccc1)OCC(=O)c1ccc([N+](=O)[O-])cc1 | – | inconclusive: 35.5 µM [inhibitor, single point] |
| Cc1nn(C)cc1CN1CCCC(C(=O)c2ccc(-c3ccccc3)c(F)c2)C1 (stereo not drawn) | – | inconclusive: 35.5 µM [inhibitor, single point] |
| CC(=O)Nc1ccc(/C(C)=N/NC(=O)c2ccncc2)cc1 | inactive: 28.4% [at 46.1 µM] | – |
| O=C(/C=C/c1ccccc1)NC(NC(=S)Nc1ccc(Cl)cc1Cl)C(Cl)(Cl)Cl (stereo not drawn) | – | inconclusive: 15.8 µM [inhibitor, single point] |
| COc1ccc(NC(=O)c2cccc(N3C(=O)c4ccc(C(=O)Nc5ccc(OC)c(O)c5)cc4C3=O)c2)cc1O | – | inconclusive: 2.24 µM [inhibitor, partial curve, poor fit] |
| O=C1NC(=S)N(C(=O)c2ccc(F)cc2)/C1=C/c1cccnc1 | inactive: -23.9% | – |
| Cc1nc(N2CCN(c3ccccn3)CC2)c2c(C)c(C(=O)Nc3ccccc3F)sc2n1 | – | inconclusive: 2.51 µM [inhibitor, single point] |
| N#C/C(=C(/O)COC(=O)CCCNC(=O)c1ccc(Cl)cc1)c1nc2ccccc2[nH]1 | – | inconclusive: 12.6 µM [inhibitor, partial curve, poor fit] |

| SMILES | activity change, negative = inhibition | Potency |
| --- | --- | --- |
| CC(=O)c1ccc(N2CCN(C(=O)c3n[nH]c4ccccc34)CC2)cc1 | – | inconclusive: 31.6 µM [inhibitor, single point] |
| COc1ccc(-n2c(=O)c3c(C)c(C)sc3n(CC(=O)NCc3ccc(C)cc3)c2=O)c(OC)c1 | inactive: 1.02% [at 46.1 µM] | – |
| O=C(Nc1ccc(F)cc1F)N1CCCN(c2ccc(C(F)(F)F)cn2)CC1 | – | inconclusive: 1.41 µM [inhibitor, partial curve, poor fit] |
| O=C(COc1ccc(S(=O)(=O)N2CCCCC2)cc1)Nc1ccccc1F | inactive: -0.931% [at 46.1 µM] | – |
| O=C(CSc1nc2c(sc3ccccc32)c(=O)n1CCCC(=O)NC1CCCC1)Nc1ccc(F)cc1 | inactive: -2.18% [at 46.1 µM] | – |
| CS(=O)(=O)c1oc(-c2ccc(F)cc2)nc1S(=O)(=O)c1ccc(Cl)cc1 | inactive: -15.2% [at 46.1 µM] | – |
| Cc1ccc(C2C3=C(NCCN=C3c3ccccc3)C(=O)N2c2ccccc2)cc1 (stereo not drawn) | – | active: 10.3 µM |
| OC(CNCCc1ccc(Cl)cc1Cl)COc1ccccc1 (stereo not drawn) | – | inconclusive: 10 µM [inhibitor, partial curve] |
| CCOC(=O)c1c(-c2ccccc2)nc2c(C)cccn12 | inactive: 19.7% | – |
| O=C(CSc1cn(CCNC(=O)c2ccccc2F)c2ccccc12)Nc1ccccc1F | inactive: -16.3% [at 46.1 µM] | – |
| CCC1CCC(C(=O)NNC(=O)OC)CC1 (stereo not drawn) | – | inconclusive: 23.1 µM [activator, single point] |
| C/C(=N\NC(=O)Cc1ccccc1Cl)c1cccnc1 | inactive: -20.4% [at 46.1 µM] | – |
| CCCCN1C(=O)NC(NC(C)=O)(C(F)(F)F)C1=O (stereo not drawn) | inactive: 29% [at 46.1 µM] | – |
| c1ccc(CCNCCCOc2cccc3ccccc23)cc1 | – | inconclusive: 10 µM [inhibitor, partial curve, poor fit] |
| COc1cccc(-n2c(SCC(=O)Nc3cccc(Cl)c3)nc3c(oc4ccccc43)c2=O)c1 | – | inconclusive: 8.91 µM [inhibitor, partial curve] |
| Cc1ccc(Cl)c(NC(=O)COC(=O)c2cc[n+]([O-])cc2)c1Cl | – | inconclusive: 0.316 µM [inhibitor, partial curve, poor fit] |
| COc1ccc(N2CC(C(=O)Nc3nc4ccc(S(C)(=O)=O)cc4s3)CC2=O)cc1 (stereo not drawn) | – | inconclusive: 35.5 µM [activator, single point] |
| CCSc1ncc(Cl)c(C(=O)Nc2ccc(S(=O)(=O)N3CCC(C)CC3)cc2)n1 | – | inconclusive: 8.91 µM [inhibitor, partial curve, poor fit] |
| Cc1c(Cl)cccc1NC(=O)Cn1cc(C(=O)C2CCCCC2)c2ccccc21 | – | inconclusive: 7.08 µM [inhibitor, full curve, poor fit] |
| COc1ccc(OC)c(C(=O)CN2C(=O)NC(C)(c3ccccc3)C2=O)c1 (stereo not drawn) | – | inconclusive: 15.8 µM [activator, single point] |
| CCN1CCN(CCOc2ccc(Cl)cc2)CC1 | inactive: 3.26% [at 46.1 µM] | – |
| CCCCN(C(=O)c1ccc(OC)c([N+](=O)[O-])c1)c1c(N)n(CCC)c(=O)[nH]c1=O | – | inconclusive: 1.26 µM [activator, partial curve, poor fit] |
| COCCn1c(CCC(=O)Nc2ccc(C)c(Cl)c2)nc2cccnc21 | inactive: 3.34% [at 46.1 µM] | – |

Some values from above:
Entry for CCCCN(C(=O)c1ccc(OC)c([N+](=O)[O-])c1)c1c(N)n(CCC)c(=O)[nH]c1=O under Potency: inconclusive: 1.26 µM [activator, partial curve, poor fit]
Entry for CCOC(=O)c1c(-c2ccccc2)nc2c(C)cccn12 under activity change, negative = inhibition: inactive: 19.7%
Entry for CCC1CCC(C(=O)NNC(=O)OC)CC1 (stereo not drawn) under Potency: inconclusive: 23.1 µM [activator, single point]

More entries

| SMILES | activity change, negative = inhibition | Potency |
| --- | --- | --- |
| Cc1ncc(CSc2nnnn2-c2ccccc2)c(N)n1 | inactive: 20.8% | – |
| c1ccc(-c2nnc(SCc3nnc(-c4cccs4)o3)o2)cc1 | – | inconclusive: 0.794 µM [activator, partial curve, poor fit] |
| COC(=O)C1CSC(C(=O)OC)N1C(=O)Nc1ccc(Cl)cc1 (stereo not drawn) | – | inconclusive: 20 µM [activator, single point] |
| O=C(O)c1cccnc1C(=O)O | – | inconclusive: 0.02 µM [inhibitor, full curve, poor fit] |
| Cc1cc(NC(=O)CCC(=O)N(CC(=O)NC2CCCC2)c2ccc(C)c(F)c2)no1 | inactive: 7.45% [at 46.1 µM] | – |
| CC(=O)n1c2ccccc2c2nc(NC(C)C)sc21 | inactive: -0.251% [at 46.1 µM] | – |
| CC(=O)c1cc(NC(=O)c2ccc(C)cc2)c(=O)oc1C | – | inconclusive: 14.1 µM [inhibitor, single point] |
| CCOC(=O)/C=C1\SCC(=O)N1CC(=O)Nc1cc(S(=O)(=O)N(C)C)ccc1C | inactive: 1.06% [at 46.1 µM] | – |
| CN(C(=O)COC(=O)/C=C/c1ccc2ccccc2n1)c1c(N)n(Cc2ccccc2)c(=O)[nH]c1=O | – | inconclusive: 0.631 µM [inhibitor, full curve, poor fit] |
| Cc1ccc(S(=O)(=O)/N=S(/c2ccccc2)C(C)C)cc1 (stereo not drawn) | – | inconclusive: 1.41 µM [inhibitor, partial curve, poor fit] |
| COc1ccc(C2N(c3ccc(Cl)cc3)N=C(C(C)=O)N(C)N2C(C)=O)cc1 (stereo not drawn) | – | inconclusive: 14.1 µM [inhibitor, partial curve, poor fit] |
| C=CCc1c(NCCO)nc(C)[nH]c1=O | – | inconclusive: 5.01 µM [activator, single point] |
| Cc1ccccc1NC(=O)/C(C#N)=C\c1cn(CC(=O)O)c2ccccc12 | inactive: -3.58% [at 46.1 µM] | – |
| O=C(Nc1nc2ccc(F)cc2s1)c1cccs1 | – | inconclusive: 11.2 µM [inhibitor, partial curve, poor fit] |
| COc1ccc(NC(=O)Cn2c(=O)n(Cc3ccco3)c(=O)c3cc(OC)c(OC)cc32)cc1 | inactive: 11% [at 46.1 µM] | – |
| Cc1ccc(C2(c3ccc(C)cc3)NC(=O)N(CC(N)=O)C2=O)cc1 | – | inconclusive: 8.91 µM [inhibitor, partial curve] |
| CN(C)c1ccc(-c2nc3cnccn3c2Nc2cccc(C(F)(F)F)c2)cc1 | inactive: -2.63% [at 46.1 µM] | – |
| O=C(CSCC(=O)N1CCN(c2ccccc2)CC1)Nc1nc(-c2ccc(Cl)s2)cs1 | inactive: 0.305% | – |
| CCOC(=O)c1c(C(=O)OCC)c(C)n(CCc2ccc(OC)c(OC)c2)c1C | – | inconclusive: 0.708 µM [inhibitor, full curve, poor fit] |
| C(=N\Nc1ccccn1)/c1ccc2c(c1)OCCO2 | – | inconclusive: 15.8 µM [inhibitor, single point] |
| COC(=O)Cc1c(C)c2cc3c(c(C)c2oc1=O)OCN(CCc1ccccc1F)C3 | – | inconclusive: 2.24 µM [inhibitor, partial curve, poor fit] |
| O=C(Cc1ccccc1)n1nc(-c2ccco2)nc1SCc1ccccc1 | – | inconclusive: 16.4 µM [activator, single point] |
